The record followed here is publication PMC7450122.

Amino acid sequences for entries named in this document (tags omitted).
UniProt Q9UER7: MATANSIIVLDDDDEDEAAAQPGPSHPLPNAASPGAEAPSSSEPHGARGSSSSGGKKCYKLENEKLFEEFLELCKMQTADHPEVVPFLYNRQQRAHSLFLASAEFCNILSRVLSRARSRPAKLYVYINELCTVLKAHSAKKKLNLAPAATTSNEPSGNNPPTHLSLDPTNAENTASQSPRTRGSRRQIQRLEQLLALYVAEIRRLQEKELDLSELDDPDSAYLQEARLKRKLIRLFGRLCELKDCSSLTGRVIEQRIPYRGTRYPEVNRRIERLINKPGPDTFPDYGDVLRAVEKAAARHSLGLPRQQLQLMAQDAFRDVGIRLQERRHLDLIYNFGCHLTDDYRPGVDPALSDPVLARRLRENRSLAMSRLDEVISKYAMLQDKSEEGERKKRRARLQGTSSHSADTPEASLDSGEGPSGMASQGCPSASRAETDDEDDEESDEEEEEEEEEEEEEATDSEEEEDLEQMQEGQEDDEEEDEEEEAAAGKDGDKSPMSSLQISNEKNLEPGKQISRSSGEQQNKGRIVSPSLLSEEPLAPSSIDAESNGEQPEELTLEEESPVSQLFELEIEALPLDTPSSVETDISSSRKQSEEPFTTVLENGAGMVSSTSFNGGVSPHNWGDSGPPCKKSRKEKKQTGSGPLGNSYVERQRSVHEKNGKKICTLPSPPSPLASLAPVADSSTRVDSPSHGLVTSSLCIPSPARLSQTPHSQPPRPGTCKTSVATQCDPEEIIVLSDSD
UniProt Q04206: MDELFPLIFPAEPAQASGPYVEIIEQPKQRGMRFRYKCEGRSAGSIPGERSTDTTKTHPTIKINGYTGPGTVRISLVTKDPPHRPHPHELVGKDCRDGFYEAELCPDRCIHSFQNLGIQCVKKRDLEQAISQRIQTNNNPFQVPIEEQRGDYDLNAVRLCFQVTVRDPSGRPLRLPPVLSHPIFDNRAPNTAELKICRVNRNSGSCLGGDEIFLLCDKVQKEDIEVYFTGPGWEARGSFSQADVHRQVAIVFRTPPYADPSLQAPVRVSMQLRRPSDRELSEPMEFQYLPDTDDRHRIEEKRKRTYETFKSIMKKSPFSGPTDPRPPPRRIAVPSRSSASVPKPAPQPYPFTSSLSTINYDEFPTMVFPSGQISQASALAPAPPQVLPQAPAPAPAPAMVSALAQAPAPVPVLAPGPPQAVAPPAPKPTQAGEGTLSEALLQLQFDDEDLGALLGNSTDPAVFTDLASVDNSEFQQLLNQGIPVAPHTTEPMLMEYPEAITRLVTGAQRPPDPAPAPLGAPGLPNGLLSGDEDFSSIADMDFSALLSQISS

In assay [1] the target is DAXX-FLAG (UniProt Q9UER7). Description: co-IP; HEK293T cells co-transfected; whole cell lysates in RIPA buffer; the partner of USP7 immunoprecipitated (anti-HA, anti-DAXX, anti-c-Rel, anti-RelB or anti-p65) overnight at 4 °C, USP7 detected by Western blot (Fig. 3B-E, Fig. 6C).
In assay [2] the target is NF-kB p65 (RelA), expressed in HEK293T cells (UniProt Q04206). Described as above.
For assay [3], the target named is T1, RelB-FLAG (UniProt Q01201).
T1 sequence: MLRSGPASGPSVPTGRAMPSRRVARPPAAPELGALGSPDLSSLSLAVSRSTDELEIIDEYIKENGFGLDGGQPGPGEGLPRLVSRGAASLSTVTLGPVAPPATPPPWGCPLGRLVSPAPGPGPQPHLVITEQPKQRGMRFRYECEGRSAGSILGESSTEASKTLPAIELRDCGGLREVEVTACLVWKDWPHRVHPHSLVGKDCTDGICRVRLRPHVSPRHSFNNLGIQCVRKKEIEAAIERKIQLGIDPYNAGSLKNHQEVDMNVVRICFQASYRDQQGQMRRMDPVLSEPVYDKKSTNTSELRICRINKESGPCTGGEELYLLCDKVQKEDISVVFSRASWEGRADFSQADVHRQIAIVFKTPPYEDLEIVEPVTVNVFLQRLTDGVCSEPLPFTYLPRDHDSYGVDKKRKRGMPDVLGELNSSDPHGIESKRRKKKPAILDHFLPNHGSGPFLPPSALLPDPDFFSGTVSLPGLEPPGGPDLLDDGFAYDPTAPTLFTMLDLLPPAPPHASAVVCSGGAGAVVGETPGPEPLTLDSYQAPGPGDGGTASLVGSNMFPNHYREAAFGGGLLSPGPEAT
Described as above.

In assay [4] the target is T2, c-Rel-FLAG (UniProt Q04864).
T2 sequence: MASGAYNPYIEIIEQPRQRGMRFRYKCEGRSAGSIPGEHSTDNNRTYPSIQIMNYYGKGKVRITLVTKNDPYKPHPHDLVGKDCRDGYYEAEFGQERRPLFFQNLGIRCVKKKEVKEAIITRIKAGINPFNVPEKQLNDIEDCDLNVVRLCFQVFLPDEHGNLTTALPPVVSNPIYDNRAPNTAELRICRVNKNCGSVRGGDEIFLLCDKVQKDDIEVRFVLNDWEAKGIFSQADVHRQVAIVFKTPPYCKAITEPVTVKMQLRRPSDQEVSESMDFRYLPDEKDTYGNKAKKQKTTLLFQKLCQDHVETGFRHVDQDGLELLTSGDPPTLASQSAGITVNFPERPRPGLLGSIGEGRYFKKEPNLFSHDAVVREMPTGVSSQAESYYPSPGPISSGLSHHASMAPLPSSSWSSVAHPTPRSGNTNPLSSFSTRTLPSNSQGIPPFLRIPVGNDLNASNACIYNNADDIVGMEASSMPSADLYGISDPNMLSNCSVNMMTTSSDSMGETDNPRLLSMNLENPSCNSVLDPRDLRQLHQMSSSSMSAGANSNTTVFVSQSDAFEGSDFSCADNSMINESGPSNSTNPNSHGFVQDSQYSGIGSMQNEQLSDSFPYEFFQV
The assay is described as above.

In assay [5] the target is T3, USP7 peptide 753-770 (Ubl2 domain), parent peptide of the alanine scan.
T3 sequence (peptide): LDKALDELMDGDIIVFQK
Description: peptide or protein array; alanine-scanning SPOT arrays of selected 18-mer USP7 peptides; overlaid with GST-p65; anti-GST, quantified with a digital chemiluminescence scanner as percent of the unsubstituted parent peptide on the same array; less than 60% taken as important; both purified.

The target of assay [6] is USP7 (deubiquitinase ubiquitin-specific peptidase 7), FLAG-tagged, wild type (UniProt Q93009). Description: co-IP; HEK293T cells co-transfected; whole cell lysates in RIPA buffer; FLAG-tagged USP7 immunoprecipitated with anti-FLAG overnight at 4 °C, partner detected by Western blot (Fig. 2B-F, Fig. 3A). In general terms: In western blotting, separated proteins are transferred to a membrane and probed.

No constants are given. Whether binding was seen depends on the method and setting. For part of these data: In cells and extracts the contact can be indirect. Some binding calls cover weakened binding; strength is not graded here. For part of these data: Tags and fused reporters may be left off the sequences shown.

As to “USP7 (deubiquitinase ubiquitin-specific peptidase 7), FLAG-tagged, wild type (from UniProt Q93009 1-1102) (enzyme)”, the binding entry in assay [1], in assay [2], in assay [3] and in assay [4] was “binds” each time.

In the case of “GST-p65, purified recombinant (from UniProt Q04206 1-551)”, the binding entry in assay [5] is given as “binds”.

As for “NF-kB p65 (RelA), expressed in HEK293T cells (from UniProt Q04206 1-551)”, the binding entry in assay [6] is given as “binds”.
